Publication PMC4559358
No constants are given. Whether binding was seen depends on the method and setting. Binding seen in cells or lysates may run through a third protein. Some results given as binding are weak or reduced against the parent protein; the word gives no strength.

Amino acid sequences for entries named in this document (tags omitted). A change or cut given only in a name is not applied to a line headed by its entry. Residues count along the entry.
UniProt Q62418, residues 377-436: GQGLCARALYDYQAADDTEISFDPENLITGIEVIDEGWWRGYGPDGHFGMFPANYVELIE
UniProt Q9Z0W5: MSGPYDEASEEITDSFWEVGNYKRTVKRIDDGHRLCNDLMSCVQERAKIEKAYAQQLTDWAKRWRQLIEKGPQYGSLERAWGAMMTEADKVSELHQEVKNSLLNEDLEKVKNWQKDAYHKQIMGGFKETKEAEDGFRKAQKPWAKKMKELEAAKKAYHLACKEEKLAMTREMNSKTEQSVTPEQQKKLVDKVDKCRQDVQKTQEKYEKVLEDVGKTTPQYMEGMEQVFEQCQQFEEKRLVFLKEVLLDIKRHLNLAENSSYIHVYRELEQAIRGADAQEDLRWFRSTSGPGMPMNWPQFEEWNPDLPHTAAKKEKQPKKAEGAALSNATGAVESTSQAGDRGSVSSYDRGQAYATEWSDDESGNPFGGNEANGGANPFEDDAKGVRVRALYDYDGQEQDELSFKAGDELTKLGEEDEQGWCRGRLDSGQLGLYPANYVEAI
GST-syndapin I SH3 domain: residues 382-441 of Q9Z0W5
UniProt D3ZUI5: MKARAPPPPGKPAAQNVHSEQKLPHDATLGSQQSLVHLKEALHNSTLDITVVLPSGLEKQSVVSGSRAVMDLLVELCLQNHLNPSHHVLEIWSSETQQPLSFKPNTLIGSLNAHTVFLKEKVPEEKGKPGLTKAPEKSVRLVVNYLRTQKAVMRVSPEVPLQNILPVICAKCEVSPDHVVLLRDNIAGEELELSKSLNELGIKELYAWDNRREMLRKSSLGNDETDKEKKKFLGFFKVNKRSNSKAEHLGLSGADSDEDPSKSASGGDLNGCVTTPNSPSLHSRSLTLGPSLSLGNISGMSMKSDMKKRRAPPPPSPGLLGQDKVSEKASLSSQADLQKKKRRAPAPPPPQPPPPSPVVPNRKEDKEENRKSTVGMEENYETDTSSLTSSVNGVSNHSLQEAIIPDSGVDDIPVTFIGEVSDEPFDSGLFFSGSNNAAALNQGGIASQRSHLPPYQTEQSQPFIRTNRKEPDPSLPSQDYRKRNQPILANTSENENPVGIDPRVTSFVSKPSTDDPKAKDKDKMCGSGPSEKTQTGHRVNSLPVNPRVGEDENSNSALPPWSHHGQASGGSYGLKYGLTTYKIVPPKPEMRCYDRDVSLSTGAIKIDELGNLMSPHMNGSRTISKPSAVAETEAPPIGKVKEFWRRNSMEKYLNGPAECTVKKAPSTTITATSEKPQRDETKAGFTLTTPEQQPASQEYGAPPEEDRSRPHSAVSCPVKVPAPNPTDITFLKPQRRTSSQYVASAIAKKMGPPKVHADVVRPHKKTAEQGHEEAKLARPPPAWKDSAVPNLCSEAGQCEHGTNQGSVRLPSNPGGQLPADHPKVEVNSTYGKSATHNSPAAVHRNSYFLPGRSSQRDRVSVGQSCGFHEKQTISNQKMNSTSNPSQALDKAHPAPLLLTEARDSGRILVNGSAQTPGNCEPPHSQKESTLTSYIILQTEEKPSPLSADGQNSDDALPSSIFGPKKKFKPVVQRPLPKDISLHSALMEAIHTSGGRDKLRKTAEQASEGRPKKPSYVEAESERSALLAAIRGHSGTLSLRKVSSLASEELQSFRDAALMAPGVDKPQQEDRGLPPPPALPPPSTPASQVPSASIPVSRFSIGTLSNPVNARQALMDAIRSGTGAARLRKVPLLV

What was measured:
GST-Abp1 SH3 = GST-Abp1 SH3 (UniProt Q62418); assay: pull-down; purified GST-SH3 domain fusion proteins immobilized on glutathione sepharose, incubated 3 h at 4°C with HEK293 extracts; only the target purified
[1] = target: GST-syndapin I SH3 domain (UniProt Q9Z0W5); assay: as above
[2] = target: endogenous Cobl (rat brain) (rat (endogenous in rat brain)) (UniProt D3ZUI5); assay: co-IP; rat brain lysates, guinea pig anti-Cobl antibodies, protein A-agarose, lysis buffer with 30 mM NaCl, 400 μM calpain inhibitor I, with and without 2 μM Ca^2+
GFP-Cobl^1-408 (mouse) = GFP-Cobl^1-408 (mouse) (UniProt Q5NBX1); assay: co-IP; as a13 but 500 μM Ca^2+; data not shown

| Substance | binding (GST-Abp1 SH3) | binding [1] | binding [2] | binding (GFP-Cobl^1-408 (mouse)) |
| --- | --- | --- | --- | --- |
| Flag-GFP-Cobl^1-713∆48–229 (from UniProt Q5NBX1-1 1-713) (domain or fragment) | binds | binds | – | – |
| Flag-GFP-Cobl^1-713 (from UniProt Q5NBX1-1 1-713) (domain or fragment) | binds | binds | – | – |
| endogenous syndapin I (rat brain) (from UniProt Q9Z0W5 1-441) | – | – | binds | – |
| Flag-syndapin I (from UniProt Q9Z0W5 1-441) | – | – | – | binds |
